This note sets out measurements from publication PMC11637768.

Assay [1] deals with T1, VH1-interacting kinase (VIK), recombinant with GST or His tag (Arabidopsis thaliana) (UniProt Q9XI87).
T1 sequence: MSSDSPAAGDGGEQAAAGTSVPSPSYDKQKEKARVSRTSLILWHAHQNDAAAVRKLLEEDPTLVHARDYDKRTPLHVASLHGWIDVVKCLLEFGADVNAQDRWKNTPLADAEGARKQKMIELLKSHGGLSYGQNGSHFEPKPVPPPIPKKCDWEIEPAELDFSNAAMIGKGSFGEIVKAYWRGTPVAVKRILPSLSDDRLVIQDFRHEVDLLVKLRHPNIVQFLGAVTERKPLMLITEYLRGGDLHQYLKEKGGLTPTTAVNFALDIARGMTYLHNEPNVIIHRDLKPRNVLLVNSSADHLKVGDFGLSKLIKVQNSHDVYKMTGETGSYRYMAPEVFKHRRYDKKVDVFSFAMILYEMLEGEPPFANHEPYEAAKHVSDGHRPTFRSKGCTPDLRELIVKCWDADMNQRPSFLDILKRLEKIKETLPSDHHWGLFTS
As to the kind of experiment: pull-down; His/GST pull-down in vitro; proteins expressed in E. coli Rosetta incubated with BeaverBeads IDA-Nickel at 4 °C for 4 h; immunoblot with anti-His and anti-GST; both orientations.

For assay [2], the target named is YELLOW, SERRATED LEAF (YSL)-His fusion protein (Arabidopsis thaliana). Described as above.
Assay [3] deals with YSL-YFP^C (Arabidopsis thaliana). As to the kind of experiment: split reporter; BiFC; YSL-YFP^C and VIK-YFP^N coexpressed in N. benthamiana leaves by agroinfiltration; confocal microscopy after 36 to 48 h.

These are yes or no findings as the source states them, for the method shown. In cells and extracts the contact can be indirect. Binding can be weak; no strength is given. Sequences can lack the tags named with a protein.

As to “YELLOW, SERRATED LEAF (YSL)-His fusion protein (Arabidopsis thaliana)”, in assay [1], the binding result is reported as “binds”.

B1: VH1-interacting kinase (VIK), recombinant with GST or His tag (protein, UniProt Q9XI87 1-438)
chain: MSSDSPAAGDGGEQAAAGTSVPSPSYDKQKEKARVSRTSLILWHAHQNDAAAVRKLLEEDPTLVHARDYDKRTPLHVASLHGWIDVVKCLLEFGADVNAQDRWKNTPLADAEGARKQKMIELLKSHGGLSYGQNGSHFEPKPVPPPIPKKCDWEIEPAELDFSNAAMIGKGSFGEIVKAYWRGTPVAVKRILPSLSDDRLVIQDFRHEVDLLVKLRHPNIVQFLGAVTERKPLMLITEYLRGGDLHQYLKEKGGLTPTTAVNFALDIARGMTYLHNEPNVIIHRDLKPRNVLLVNSSADHLKVGDFGLSKLIKVQNSHDVYKMTGETGSYRYMAPEVFKHRRYDKKVDVFSFAMILYEMLEGEPPFANHEPYEAAKHVSDGHRPTFRSKGCTPDLRELIVKCWDADMNQRPSFLDILKRLEKIKETLPSDHHWGLFTS
Turning to B1, in assay [2], the binding entry was “binds”.

B2: VIK-YFP^N (protein, UniProt Q9XI87 1-438)
chain: MSSDSPAAGDGGEQAAAGTSVPSPSYDKQKEKARVSRTSLILWHAHQNDAAAVRKLLEEDPTLVHARDYDKRTPLHVASLHGWIDVVKCLLEFGADVNAQDRWKNTPLADAEGARKQKMIELLKSHGGLSYGQNGSHFEPKPVPPPIPKKCDWEIEPAELDFSNAAMIGKGSFGEIVKAYWRGTPVAVKRILPSLSDDRLVIQDFRHEVDLLVKLRHPNIVQFLGAVTERKPLMLITEYLRGGDLHQYLKEKGGLTPTTAVNFALDIARGMTYLHNEPNVIIHRDLKPRNVLLVNSSADHLKVGDFGLSKLIKVQNSHDVYKMTGETGSYRYMAPEVFKHRRYDKKVDVFSFAMILYEMLEGEPPFANHEPYEAAKHVSDGHRPTFRSKGCTPDLRELIVKCWDADMNQRPSFLDILKRLEKIKETLPSDHHWGLFTS
As for B2, the binding result in assay [3] is reported as “binds”.
